These results are taken from paper PMC12516318.

Sequences of proteins named here, by UniProt entry; tags and fusion partners are left off.
UniProt O18334: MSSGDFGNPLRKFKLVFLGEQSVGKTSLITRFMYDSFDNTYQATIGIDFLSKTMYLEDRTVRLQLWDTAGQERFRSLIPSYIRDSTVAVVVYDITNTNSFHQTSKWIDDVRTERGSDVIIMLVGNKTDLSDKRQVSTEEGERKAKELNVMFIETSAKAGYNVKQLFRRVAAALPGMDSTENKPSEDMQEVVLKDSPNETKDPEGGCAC

What all share (test): co-IP; GFP-Trap agarose beads (Chromotek), overnight, on lysates of 100 adult heads co-expressing Spir::tdTom and a GFP fusion (nSyb-GAL4); lysis buffer 50 mM Tris pH 8.0, 150 mM KCl, 1 mM MgCl2, 1 mM EGTA, protease inhibitors, 10% glycerol; lysates treated with deoxycholic acid and Triton X-100; immunoblots for GFP and tdTom
Experiment [1] addresses T1, Capu::GFP (Cappuccino, Fmn-family formin) (Drosophila) (UniProt Q24120).
T1 sequence: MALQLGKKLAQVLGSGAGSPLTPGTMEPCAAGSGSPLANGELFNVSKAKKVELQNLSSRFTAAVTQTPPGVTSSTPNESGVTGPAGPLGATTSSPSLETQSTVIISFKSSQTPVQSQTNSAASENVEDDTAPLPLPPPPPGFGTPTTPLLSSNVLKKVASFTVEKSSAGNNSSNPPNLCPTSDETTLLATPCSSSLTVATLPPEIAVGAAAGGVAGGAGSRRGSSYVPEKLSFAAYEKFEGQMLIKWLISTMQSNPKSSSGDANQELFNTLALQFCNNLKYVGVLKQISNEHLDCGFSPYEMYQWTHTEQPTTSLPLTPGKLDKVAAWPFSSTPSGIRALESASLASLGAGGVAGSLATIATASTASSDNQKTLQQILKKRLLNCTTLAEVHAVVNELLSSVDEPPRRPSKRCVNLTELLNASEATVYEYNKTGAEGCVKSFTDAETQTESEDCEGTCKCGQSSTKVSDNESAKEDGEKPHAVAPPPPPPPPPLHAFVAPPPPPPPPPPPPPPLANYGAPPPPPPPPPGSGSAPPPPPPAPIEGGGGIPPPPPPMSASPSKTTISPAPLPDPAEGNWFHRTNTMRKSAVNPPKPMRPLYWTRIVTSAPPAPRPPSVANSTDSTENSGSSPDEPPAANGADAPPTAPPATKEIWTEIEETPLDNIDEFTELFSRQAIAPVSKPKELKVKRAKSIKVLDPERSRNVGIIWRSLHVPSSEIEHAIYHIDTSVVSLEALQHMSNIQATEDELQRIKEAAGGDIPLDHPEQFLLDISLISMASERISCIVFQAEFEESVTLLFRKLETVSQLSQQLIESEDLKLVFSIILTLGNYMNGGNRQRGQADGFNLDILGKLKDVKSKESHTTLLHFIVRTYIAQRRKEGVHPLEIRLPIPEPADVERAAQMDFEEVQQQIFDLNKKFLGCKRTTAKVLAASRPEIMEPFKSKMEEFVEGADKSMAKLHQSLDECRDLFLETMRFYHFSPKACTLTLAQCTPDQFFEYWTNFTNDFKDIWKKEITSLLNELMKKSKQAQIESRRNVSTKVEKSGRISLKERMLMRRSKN

The target in the next experiment is Rab6::GFP (Drosophila) (UniProt O18334).
The target in a further experiment is T2, Rab11::GFP (Drosophila) (UniProt O18335).
T2 sequence: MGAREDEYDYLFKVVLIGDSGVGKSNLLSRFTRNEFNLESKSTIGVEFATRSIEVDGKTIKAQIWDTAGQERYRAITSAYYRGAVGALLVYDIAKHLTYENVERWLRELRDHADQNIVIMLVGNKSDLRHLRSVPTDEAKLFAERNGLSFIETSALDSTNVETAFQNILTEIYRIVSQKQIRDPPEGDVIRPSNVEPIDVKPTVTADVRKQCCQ

Results are given in words; binding and its absence hold for the method and conditions named. In cells and extracts the contact can be indirect. Some binding calls cover weakened binding; strength is not graded here. For part of these data: Tags and fused reporters may be left off the sequences shown.

B1: Spir::tdTom (full-length Spire with C-terminal tdTomato) (protein, UniProt Q9U1K1 1-1020)
chain: MTEHQAEEQADTPPTKVKATPTPTPSGKFKDAKEDAFLSTSPDSANGDAQHKLPADQLAMSSSAHPQQAGQARPLILQAFHRCSSPEQCVTLHDILDSFKAPLSEDQAWALIHQFAGLYHQVAVQAHTCAADYEAALPTGFELHFHRDGSVHFSGPDQLTPKEQLQQEQIPLPPQHDVIVDQPDHSASSSGDSSVINRAFDNSNHHHHHQHHHPPLVVSHRKIISELAEIVYTALDYNLPEDEECQVSQELENLFNFMTADETDDDCIDEGIDEGDKRWDDESEEERNDTKELEHIIETCRNHIKTTLPENHYRAVCRALVTETIELRVFLQQVLNNEAGAEKLIKASESSATTQQELAKLGFNDWARFWVQVIDELRRGVRLKKSNHERTPIEYELTPYEILMGDIRAKKYQLRKVMVNGDIPPRVKKDAHAMILEFIRSRPPLKKASDRQLGPPRMCEPSPREQLMESIRKGKELKQITPPEAPTLRERVLPSANSTLSRSRQRLIKVDFSKFQDDDLFYDENSISSSHSTAATHQHHPHFAEMHRCSQPKMPPYPFGGYMVPSQARQDCRETASLMRPRRTMEPAKQVPPPEEPSFTKDEYHKFYDTALESYDLATQCESRRASLRRHTIVGCQSNLDETHSMPPTRPESRQSDDVSKETPKRSPAEQTHPSDEGSSTSSLGPWNKSFMDKQTWMERGDDRLSVTLAEIVHIRSVMTKAELEGLPMDVRVKEDVEKRRVCFLCLRTRFSFFGPWGIQCKLCQRTVCAKCYTKMRIPSEHFRNVPLVLISPSLLSSPASSSTPSPSHHAQQAHSSSTGNIMDDQFPKSLIERLLRSESDRKTRSTVGSAPSSPKHQRSNMSTPGISVGPGASSSSAAATGQAVEALHDQATMSSSYSAAMRPSGVHQQQKQHYNNAMSRSMEGPRSLPVHSPAYRPLSNNSTLERKSRFSRGFNLFSSGSHLAQTQEQKENLRGEQVTVCNDCQGLVNEITSSVKQKRSSARNRTIQNLTLDLTPVWK
Regarding B1, the binding entry in experiment [1] is “binds”; in the experiment with Rab6::GFP (Drosophila), “no binding”; with Rab11::GFP (Drosophila), “binds”.
